In the supplement of paper PMC10849652:
Some of the results follow.

Chains of the proteins cited; added tags and fusions are not shown. Lines headed by an entry give the natural chain unless they say otherwise; changes in a name come on top.
UniProt Q9Y2G5: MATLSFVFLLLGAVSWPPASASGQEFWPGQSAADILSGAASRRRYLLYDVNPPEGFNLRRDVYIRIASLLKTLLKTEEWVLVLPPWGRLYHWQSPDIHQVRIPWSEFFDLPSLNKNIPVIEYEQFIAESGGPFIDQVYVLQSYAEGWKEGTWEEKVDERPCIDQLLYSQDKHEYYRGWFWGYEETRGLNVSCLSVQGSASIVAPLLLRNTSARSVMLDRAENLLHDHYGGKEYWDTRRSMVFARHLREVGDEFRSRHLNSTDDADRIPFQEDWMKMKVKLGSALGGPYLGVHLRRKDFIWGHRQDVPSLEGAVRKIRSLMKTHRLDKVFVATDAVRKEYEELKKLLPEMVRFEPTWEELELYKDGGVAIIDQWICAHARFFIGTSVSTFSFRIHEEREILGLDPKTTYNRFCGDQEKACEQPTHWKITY
UniProt Q13136: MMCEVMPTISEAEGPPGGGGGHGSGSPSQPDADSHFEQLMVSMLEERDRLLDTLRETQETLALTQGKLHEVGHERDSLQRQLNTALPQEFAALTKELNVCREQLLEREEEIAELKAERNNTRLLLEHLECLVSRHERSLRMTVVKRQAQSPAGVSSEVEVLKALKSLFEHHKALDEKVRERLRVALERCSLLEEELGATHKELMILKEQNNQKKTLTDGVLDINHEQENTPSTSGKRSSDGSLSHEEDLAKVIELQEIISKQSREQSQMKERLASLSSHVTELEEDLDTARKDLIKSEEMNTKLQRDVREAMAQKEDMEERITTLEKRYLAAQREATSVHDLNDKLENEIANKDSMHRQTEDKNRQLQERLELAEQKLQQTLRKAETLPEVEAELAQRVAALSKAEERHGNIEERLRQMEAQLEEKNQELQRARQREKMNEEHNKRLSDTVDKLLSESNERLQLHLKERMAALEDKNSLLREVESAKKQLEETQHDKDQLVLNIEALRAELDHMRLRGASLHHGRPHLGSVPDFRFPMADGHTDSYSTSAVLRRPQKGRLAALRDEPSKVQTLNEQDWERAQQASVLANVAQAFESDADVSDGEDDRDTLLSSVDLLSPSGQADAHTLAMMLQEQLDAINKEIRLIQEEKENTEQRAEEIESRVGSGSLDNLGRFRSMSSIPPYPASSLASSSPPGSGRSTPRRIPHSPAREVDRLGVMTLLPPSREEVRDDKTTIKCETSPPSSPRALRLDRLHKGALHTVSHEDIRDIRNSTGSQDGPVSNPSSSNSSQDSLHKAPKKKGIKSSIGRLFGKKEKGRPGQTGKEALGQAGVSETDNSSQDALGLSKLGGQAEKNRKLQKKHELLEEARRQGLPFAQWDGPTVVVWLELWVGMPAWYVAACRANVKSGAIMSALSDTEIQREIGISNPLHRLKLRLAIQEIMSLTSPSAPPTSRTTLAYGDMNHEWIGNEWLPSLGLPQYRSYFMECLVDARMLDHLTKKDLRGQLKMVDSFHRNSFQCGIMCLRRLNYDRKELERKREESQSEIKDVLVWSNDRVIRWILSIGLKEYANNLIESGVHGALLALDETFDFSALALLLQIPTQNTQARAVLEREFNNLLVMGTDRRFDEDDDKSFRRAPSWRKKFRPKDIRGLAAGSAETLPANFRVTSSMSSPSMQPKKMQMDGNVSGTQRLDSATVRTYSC
UniProt O60568: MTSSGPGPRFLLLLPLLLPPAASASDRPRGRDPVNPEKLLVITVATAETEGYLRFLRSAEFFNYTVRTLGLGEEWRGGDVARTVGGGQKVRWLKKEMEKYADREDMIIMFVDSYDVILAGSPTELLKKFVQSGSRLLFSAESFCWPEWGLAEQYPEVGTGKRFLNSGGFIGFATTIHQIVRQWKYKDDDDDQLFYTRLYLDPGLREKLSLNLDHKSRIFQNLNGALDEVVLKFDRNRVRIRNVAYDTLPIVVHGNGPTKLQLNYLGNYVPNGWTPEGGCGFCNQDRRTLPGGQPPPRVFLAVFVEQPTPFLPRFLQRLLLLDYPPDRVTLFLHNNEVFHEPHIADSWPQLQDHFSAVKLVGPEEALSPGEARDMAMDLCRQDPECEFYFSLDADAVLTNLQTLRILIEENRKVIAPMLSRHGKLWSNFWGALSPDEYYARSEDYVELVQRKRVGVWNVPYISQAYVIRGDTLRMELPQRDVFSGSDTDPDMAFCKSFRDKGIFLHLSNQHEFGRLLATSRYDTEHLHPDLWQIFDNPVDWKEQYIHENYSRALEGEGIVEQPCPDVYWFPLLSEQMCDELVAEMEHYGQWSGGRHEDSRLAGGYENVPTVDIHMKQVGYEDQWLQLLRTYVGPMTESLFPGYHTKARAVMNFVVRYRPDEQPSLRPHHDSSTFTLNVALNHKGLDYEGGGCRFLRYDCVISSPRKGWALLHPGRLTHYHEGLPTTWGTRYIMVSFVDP
UniProt O15031: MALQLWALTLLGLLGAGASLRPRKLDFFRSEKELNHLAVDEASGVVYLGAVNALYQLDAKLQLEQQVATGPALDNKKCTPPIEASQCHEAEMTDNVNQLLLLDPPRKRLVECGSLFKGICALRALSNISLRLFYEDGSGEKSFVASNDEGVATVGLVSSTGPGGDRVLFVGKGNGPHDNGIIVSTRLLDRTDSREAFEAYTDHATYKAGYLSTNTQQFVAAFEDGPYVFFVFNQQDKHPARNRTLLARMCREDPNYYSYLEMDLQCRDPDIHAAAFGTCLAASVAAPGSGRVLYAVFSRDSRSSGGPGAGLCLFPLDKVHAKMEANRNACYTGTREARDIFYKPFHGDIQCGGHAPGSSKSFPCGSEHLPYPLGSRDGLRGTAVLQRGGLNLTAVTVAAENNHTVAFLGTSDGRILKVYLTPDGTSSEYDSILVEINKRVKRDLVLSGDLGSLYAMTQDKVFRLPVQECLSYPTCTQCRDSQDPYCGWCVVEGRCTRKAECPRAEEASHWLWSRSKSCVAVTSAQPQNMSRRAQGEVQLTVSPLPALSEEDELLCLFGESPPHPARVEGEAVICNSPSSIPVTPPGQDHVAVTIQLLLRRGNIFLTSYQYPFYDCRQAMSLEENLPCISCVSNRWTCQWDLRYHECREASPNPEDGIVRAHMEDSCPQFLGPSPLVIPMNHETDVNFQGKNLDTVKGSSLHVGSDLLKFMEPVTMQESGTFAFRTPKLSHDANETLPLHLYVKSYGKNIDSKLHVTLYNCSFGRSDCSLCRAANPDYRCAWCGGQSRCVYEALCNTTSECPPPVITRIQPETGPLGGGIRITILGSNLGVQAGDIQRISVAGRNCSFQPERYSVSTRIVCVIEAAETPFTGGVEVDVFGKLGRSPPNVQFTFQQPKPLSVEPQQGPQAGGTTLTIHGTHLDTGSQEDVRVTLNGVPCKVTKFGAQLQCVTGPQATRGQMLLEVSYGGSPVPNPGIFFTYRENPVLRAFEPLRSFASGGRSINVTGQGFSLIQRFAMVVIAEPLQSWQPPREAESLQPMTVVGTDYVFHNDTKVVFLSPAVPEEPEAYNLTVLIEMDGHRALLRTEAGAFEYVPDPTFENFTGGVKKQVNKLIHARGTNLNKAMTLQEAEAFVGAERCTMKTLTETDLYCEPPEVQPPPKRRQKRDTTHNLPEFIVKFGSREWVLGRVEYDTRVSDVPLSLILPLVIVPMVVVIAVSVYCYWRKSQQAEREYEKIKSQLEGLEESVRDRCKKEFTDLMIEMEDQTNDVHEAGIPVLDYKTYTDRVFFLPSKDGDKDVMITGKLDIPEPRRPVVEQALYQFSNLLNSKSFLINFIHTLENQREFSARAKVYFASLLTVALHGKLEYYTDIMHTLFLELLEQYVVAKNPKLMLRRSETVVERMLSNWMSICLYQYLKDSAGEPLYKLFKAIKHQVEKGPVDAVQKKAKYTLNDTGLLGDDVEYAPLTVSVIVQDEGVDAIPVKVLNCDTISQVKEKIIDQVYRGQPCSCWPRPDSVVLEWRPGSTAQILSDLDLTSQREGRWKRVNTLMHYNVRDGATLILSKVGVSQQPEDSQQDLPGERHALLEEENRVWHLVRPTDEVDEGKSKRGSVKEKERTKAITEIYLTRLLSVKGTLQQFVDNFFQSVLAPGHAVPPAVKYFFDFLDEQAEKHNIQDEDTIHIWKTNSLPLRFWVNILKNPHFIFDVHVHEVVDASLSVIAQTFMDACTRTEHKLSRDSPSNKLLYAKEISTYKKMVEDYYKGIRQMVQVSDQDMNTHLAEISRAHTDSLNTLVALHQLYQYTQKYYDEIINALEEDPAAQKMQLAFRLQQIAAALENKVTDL
UniProt Q9NRX1: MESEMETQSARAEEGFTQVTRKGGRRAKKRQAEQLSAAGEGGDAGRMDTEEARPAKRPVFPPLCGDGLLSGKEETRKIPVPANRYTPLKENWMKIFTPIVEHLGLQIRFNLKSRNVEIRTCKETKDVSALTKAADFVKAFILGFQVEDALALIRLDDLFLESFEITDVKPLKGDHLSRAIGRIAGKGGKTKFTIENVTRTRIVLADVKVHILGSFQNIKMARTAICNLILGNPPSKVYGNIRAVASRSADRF
UniProt Q8WZA1: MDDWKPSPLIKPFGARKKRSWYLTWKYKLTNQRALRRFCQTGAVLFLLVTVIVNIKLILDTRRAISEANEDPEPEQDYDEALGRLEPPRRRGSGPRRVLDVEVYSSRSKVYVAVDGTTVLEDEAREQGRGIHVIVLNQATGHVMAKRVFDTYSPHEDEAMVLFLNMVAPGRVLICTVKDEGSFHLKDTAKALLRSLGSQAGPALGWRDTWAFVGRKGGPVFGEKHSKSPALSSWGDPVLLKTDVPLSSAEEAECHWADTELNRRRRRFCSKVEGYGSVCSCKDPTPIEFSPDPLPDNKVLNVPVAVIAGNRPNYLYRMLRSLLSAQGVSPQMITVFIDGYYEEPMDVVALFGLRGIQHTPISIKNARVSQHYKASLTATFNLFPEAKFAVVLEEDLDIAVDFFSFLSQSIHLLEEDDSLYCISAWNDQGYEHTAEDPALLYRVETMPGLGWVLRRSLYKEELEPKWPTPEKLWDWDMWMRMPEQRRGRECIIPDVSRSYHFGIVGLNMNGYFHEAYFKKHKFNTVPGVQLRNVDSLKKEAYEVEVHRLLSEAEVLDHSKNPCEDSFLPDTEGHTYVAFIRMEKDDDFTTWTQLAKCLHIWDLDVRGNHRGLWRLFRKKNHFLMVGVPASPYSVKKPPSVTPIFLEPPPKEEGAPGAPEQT
UniProt Q9Y2S7: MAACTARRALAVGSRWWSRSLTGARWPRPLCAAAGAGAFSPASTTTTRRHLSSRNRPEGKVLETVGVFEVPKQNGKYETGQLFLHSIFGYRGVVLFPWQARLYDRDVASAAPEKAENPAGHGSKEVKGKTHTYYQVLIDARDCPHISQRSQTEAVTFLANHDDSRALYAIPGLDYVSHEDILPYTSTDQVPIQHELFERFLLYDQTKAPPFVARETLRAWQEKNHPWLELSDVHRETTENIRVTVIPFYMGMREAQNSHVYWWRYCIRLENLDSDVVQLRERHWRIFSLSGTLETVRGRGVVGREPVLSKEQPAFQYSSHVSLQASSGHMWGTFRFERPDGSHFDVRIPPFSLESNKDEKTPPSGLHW
UniProt Q6UW63: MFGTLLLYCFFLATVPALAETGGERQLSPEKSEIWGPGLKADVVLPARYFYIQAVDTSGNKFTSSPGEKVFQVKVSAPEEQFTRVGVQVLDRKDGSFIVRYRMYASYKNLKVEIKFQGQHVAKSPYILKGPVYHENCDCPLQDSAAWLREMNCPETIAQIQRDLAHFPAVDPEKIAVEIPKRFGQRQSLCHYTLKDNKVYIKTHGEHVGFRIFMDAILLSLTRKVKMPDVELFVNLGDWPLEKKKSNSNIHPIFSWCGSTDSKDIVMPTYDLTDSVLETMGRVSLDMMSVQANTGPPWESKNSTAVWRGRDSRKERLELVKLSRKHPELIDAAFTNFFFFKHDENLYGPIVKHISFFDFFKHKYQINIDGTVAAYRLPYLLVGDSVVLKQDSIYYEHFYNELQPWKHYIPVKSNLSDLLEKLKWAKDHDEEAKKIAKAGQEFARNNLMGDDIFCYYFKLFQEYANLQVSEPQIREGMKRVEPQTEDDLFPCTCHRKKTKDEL
UniProt Q8N490: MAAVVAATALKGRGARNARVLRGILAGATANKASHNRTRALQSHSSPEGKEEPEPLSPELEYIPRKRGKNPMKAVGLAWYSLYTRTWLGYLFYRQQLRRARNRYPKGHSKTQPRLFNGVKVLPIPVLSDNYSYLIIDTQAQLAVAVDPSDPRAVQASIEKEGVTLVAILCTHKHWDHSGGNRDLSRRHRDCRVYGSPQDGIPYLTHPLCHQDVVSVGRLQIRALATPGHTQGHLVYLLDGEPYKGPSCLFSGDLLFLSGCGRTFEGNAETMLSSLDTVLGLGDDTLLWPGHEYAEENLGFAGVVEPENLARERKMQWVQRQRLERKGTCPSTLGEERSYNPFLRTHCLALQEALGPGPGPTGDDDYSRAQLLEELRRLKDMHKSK
UniProt P30405: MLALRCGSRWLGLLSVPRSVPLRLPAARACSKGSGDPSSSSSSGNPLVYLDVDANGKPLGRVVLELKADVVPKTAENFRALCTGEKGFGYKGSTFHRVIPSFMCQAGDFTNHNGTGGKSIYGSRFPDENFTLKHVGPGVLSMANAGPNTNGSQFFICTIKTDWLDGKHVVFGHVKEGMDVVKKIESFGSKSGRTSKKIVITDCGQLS

compound: COC1=CC=C(C=C1)CN2C=CC3=C2C=C(C=C3)C(=O)NO; assay: log2 fold change, soluble protein after heating vs DMSO (PISA); higher = thermal stabilisation; K562 cells, 10 uM, 30 min; active = over 0.2 and 3.5 SD of the protein, either way, in both replicates (recomputed)
Outline: (§1)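 K562 cells at 2×10^6 cells/mL were exposed to 10 μM compound for 30 min, then aliquots were heated for 3 min across 48°C-58°C, pooled, and extracted in PBS containing 0.5% NP-40 at 4°C. The supernatant after 21,000xg for 90 min was taken as soluble protein and measured by TMTpro 16plex LC-MS/MS with channel sums equalised. Thermal stability is reported relative to control samples, with values from duplicates. Fold changes are given on a log2 scale.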

log2 fold change, inactive:
POFUT2 (UniProt Q9Y2G5) -0.053
PPIA (UniProt P62937) 0.021
POLR3C (UniProt Q9BUI4) -0.011
POFUT1 (UniProt Q9H488) -0.03
PPM1B (UniProt O75688) -0.034
PPIP5K2 (UniProt O43314) 0.009
PNPO (UniProt Q9NVS9) 0.029
POLDIP3 (UniProt Q9BY77) 0.006
PPFIA1 (UniProt Q13136) -0.168
PMF1 (UniProt Q6P1K2) -0.07
POLG2 (UniProt Q9UHN1) 0.089
PLOD3 (UniProt O60568) -0.075
PLXNB2 (UniProt O15031) 0.003
PNO1 (UniProt Q9NRX1) 0.028
PLIN3 (UniProt O60664) 0.073
POMGNT1 isoform 2 (UniProt Q8WZA1) -0.23
POP7 (UniProt O75817) 0.039
PPAT (UniProt Q06203) 0.003
PPAN isoform 3 (UniProt Q9NQ55) -0.077
PPA2 (UniProt Q9H2U2) 0.028
POP5 (UniProt Q969H6) -0.004
POSTN (UniProt Q15063) 0.103
POLDIP2 (UniProt Q9Y2S7) -0.004
PPCDC (UniProt Q96CD2) 0.117
POLR2H (UniProt P52434) -0.073
POGLUT2 (UniProt Q6UW63) -0.055
POLR3F (UniProt Q9H1D9) -0.032
PPA1 (UniProt Q15181) 0
POTEF (UniProt A5A3E0) -0.048
POU2F1 isoform 6 (UniProt P14859) -0.038
PNKD isoform 2 (UniProt Q8N490) -0.051
PPIF (UniProt P30405) -0.176
PPIE (UniProt Q9UNP9) -0.076

compound: CON(C)C(=O)N1N=C(c2cc(F)ccc2F)S[C@@]1(CCCN)c1ccccc1 [filanesib]; assay: as above
Outline: as §1

log2 fold change, inactive:
POFUT2 (UniProt Q9Y2G5) 0.101
PPIA (UniProt P62937) -0.035
POLR3C (UniProt Q9BUI4) -0.029
POFUT1 (UniProt Q9H488) 0.012
PPM1B (UniProt O75688) -0.057
PPIP5K2 (UniProt O43314) -0.036
PNPO (UniProt Q9NVS9) -0.055
POLDIP3 (UniProt Q9BY77) 0.189
PPFIA1 (UniProt Q13136) 0.101
PMF1 (UniProt Q6P1K2) 0
POLG2 (UniProt Q9UHN1) 0.012
PLOD3 (UniProt O60568) 0.075
PLXNB2 (UniProt O15031) 0.034
PNO1 (UniProt Q9NRX1) 0.199
PLIN3 (UniProt O60664) -0.095
POMGNT1 isoform 2 (UniProt Q8WZA1) 0.019
POP7 (UniProt O75817) 0.034
PPAT (UniProt Q06203) -0.018
PPAN isoform 3 (UniProt Q9NQ55) 0.21
PPA2 (UniProt Q9H2U2) -0.071
POP5 (UniProt Q969H6) 0.05
POSTN (UniProt Q15063) -0.064
POLDIP2 (UniProt Q9Y2S7) -0.009
PPCDC (UniProt Q96CD2) -0.008
POLR2H (UniProt P52434) -0.03
POGLUT2 (UniProt Q6UW63) 0.028
POLR3F (UniProt Q9H1D9) 0.012
PPA1 (UniProt Q15181) -0.092
POTEF (UniProt A5A3E0) 0.005
POU2F1 isoform 6 (UniProt P14859) -0.139
PNKD isoform 2 (UniProt Q8N490) -0.008
PPIF (UniProt P30405) -0.035
PPIE (UniProt Q9UNP9) -0.023

compound: CO[C@H]1C[C@@H]2CC[C@@H](C)[C@@](O)(O2)C(=O)C(=O)N2CCCC[C@H]2C(=O)O[C@H]([C@H](C)C[C@@H]2CC[C@H](n3cnnn3)[C@H](OC)C2)CC(=O)[C@H](C)/C=C(\C)[C@@H](O)[C@@H](OC)C(=O)[C@H](C)C[C@H](C)/C=C/C=C/C=C/1C [zotarolimus]; assay: as above
Outline: as §1

log2 fold change, inactive:
POFUT2 (UniProt Q9Y2G5) 0.024
PPIA (UniProt P62937) 0
POLR3C (UniProt Q9BUI4) 0.018
POFUT1 (UniProt Q9H488) 0.141
PPM1B (UniProt O75688) -0.018
PPIP5K2 (UniProt O43314) -0.003
PNPO (UniProt Q9NVS9) 0.002
POLDIP3 (UniProt Q9BY77) 0.012
PPFIA1 (UniProt Q13136) 0.211
PMF1 (UniProt Q6P1K2) 0.062
POLG2 (UniProt Q9UHN1) 0.008
PLOD3 (UniProt O60568) 0.007
PLXNB2 (UniProt O15031) -0.042
PNO1 (UniProt Q9NRX1) -0.002
PLIN3 (UniProt O60664) 0.043
POMGNT1 isoform 2 (UniProt Q8WZA1) -0.003
POP7 (UniProt O75817) 0.071
PPAT (UniProt Q06203) 0.038
PPAN isoform 3 (UniProt Q9NQ55) 0.153
PPA2 (UniProt Q9H2U2) -0.003
POP5 (UniProt Q969H6) -0.039
POSTN (UniProt Q15063) -0.294
POLDIP2 (UniProt Q9Y2S7) -0.005
PPCDC (UniProt Q96CD2) 0.024
POLR2H (UniProt P52434) -0.029
POGLUT2 (UniProt Q6UW63) 0.052
POLR3F (UniProt Q9H1D9) 0.043
PPA1 (UniProt Q15181) 0.019
POTEF (UniProt A5A3E0) 0.009
POU2F1 isoform 6 (UniProt P14859) 0
PNKD isoform 2 (UniProt Q8N490) -0.066
PPIF (UniProt P30405) 0.036
PPIE (UniProt Q9UNP9) -0.032
